Publication PMC7545202
No constants are given. Whether binding was seen depends on the method and setting. In cells and extracts the contact can be indirect. These calls come from enrichment with a bait or labelling near it, and not all partners need be listed.

Chains of the proteins cited; added tags and fusions are not shown.
UniProt Q5NCY0: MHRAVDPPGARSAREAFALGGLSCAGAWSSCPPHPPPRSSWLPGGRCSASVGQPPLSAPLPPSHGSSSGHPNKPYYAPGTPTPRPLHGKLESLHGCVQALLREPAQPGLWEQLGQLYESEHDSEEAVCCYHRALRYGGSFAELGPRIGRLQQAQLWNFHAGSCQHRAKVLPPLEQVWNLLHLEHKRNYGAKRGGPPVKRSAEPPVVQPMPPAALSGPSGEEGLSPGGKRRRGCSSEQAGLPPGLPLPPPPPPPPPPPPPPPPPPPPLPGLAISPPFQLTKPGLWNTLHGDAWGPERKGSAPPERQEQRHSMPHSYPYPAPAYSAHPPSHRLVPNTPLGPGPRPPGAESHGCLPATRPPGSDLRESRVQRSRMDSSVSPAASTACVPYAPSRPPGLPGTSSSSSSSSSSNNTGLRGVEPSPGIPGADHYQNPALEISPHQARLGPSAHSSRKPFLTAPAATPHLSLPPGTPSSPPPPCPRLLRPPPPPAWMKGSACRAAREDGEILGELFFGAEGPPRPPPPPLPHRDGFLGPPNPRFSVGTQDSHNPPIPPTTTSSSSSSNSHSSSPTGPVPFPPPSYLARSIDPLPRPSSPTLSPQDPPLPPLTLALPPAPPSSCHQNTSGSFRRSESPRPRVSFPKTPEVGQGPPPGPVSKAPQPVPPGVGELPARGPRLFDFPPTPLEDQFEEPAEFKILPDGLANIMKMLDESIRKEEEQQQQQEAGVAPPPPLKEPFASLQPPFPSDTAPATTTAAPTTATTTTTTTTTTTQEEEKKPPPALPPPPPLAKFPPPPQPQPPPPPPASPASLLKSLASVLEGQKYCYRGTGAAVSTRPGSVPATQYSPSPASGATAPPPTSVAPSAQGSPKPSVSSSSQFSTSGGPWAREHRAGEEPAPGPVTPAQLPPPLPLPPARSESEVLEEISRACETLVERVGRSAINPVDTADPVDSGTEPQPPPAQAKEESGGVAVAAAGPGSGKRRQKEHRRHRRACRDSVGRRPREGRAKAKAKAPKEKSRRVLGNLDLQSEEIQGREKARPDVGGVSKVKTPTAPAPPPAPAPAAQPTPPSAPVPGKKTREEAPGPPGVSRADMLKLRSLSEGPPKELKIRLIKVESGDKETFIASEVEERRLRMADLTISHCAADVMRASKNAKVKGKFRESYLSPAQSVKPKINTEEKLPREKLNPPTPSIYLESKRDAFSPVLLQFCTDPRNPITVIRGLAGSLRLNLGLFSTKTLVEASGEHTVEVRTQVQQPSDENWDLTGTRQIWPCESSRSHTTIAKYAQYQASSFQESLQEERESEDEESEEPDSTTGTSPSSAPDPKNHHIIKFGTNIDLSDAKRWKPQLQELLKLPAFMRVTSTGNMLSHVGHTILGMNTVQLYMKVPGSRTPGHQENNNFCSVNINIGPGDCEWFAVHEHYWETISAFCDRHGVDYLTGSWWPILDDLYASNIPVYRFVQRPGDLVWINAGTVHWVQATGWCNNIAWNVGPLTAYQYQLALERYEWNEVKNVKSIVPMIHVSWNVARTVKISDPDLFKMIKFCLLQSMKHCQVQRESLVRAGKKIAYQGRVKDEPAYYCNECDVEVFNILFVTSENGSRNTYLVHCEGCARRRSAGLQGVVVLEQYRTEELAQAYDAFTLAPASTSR
UniProt Q6KCD5: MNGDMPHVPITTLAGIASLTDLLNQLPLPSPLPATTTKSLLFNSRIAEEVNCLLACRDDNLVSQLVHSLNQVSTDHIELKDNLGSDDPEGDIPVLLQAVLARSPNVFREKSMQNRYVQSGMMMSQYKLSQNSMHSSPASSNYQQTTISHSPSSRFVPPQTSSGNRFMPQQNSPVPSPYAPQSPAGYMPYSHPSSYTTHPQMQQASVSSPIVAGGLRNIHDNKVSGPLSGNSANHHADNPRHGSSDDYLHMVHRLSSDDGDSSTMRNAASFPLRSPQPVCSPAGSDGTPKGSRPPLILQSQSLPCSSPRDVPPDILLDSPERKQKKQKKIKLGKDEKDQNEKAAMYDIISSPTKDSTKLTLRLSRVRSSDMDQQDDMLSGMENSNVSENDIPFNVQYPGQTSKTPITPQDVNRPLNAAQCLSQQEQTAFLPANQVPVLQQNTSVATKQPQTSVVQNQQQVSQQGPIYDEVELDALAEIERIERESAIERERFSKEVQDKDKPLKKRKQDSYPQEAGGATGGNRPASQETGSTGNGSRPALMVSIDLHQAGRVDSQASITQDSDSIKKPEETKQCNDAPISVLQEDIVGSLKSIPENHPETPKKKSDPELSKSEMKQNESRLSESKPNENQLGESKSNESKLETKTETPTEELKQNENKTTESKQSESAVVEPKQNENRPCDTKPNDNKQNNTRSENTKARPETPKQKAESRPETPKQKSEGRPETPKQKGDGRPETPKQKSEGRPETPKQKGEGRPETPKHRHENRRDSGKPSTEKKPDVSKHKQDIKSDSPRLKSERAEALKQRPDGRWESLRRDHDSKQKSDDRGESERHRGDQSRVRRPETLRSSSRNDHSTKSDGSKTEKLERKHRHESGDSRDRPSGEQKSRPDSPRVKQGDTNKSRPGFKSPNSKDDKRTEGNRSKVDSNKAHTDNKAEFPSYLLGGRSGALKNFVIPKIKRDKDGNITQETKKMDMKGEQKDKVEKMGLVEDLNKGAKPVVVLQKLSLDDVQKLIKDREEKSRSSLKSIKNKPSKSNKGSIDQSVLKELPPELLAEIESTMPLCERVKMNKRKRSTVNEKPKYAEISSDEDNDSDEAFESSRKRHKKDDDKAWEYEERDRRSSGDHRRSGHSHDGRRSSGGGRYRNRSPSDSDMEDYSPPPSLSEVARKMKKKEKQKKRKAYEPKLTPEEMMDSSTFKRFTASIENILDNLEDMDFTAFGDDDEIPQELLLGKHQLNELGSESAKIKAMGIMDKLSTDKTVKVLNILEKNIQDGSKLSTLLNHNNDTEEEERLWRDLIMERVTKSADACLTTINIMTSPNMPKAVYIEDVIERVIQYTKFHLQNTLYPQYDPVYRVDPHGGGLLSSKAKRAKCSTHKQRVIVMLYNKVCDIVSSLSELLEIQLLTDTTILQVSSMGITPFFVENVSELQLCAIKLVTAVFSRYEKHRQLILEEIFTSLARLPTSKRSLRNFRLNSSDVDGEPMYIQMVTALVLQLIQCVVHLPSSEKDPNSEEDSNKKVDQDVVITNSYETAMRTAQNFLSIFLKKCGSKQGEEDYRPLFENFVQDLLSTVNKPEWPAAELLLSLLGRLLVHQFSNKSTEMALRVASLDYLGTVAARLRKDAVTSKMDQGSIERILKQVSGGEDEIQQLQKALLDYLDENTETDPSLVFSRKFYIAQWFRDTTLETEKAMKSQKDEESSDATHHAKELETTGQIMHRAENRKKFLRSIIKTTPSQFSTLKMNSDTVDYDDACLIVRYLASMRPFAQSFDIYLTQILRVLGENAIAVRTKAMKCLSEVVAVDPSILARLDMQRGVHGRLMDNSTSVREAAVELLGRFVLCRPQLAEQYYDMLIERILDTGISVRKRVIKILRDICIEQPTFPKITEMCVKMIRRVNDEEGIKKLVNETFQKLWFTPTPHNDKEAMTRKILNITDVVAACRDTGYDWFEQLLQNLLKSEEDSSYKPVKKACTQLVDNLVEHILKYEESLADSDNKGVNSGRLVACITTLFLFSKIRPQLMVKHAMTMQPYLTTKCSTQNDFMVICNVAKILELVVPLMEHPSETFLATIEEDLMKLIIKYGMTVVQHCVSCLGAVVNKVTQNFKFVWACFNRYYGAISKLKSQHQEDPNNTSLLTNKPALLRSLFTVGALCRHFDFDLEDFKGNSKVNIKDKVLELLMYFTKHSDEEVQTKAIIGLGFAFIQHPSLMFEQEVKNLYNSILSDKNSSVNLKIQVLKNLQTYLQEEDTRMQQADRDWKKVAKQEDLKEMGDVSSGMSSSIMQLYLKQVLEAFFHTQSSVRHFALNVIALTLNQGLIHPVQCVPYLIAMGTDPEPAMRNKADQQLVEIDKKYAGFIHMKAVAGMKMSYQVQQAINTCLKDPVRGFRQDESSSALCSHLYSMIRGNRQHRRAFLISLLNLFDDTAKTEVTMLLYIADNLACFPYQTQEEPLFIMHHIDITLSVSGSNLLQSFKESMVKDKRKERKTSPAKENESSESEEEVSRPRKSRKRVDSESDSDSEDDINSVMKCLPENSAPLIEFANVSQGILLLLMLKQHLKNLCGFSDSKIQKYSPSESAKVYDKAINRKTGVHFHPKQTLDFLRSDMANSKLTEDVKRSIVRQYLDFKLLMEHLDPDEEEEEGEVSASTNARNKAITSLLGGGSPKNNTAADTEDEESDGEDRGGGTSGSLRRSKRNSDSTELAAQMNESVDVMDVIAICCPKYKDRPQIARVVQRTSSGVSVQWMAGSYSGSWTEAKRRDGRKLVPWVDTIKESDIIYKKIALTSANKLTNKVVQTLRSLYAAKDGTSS

Molecular target: 3×FLAG-tagged JMJD3 (mouse) (UniProt Q5NCY0)
Assay: affinity purification with mass spectrometry; anti-FLAG M2 magnetic beads with nuclear extracts from OSKM-reprogrammed P2 MEFs with 3×FLAG-tagged JMJD3 or UTX; eluted with 3×FLAG peptide; eluates analysed by MS

binding	Molecule
binds	NIPBL (from UniProt Q6KCD5 1-2798)
binds	H3K27me2/1 demethylase KDM7A (enzyme, UniProt Q3UWM4 1-940) MAGAAAAVAAGAAAGAAAAAGSVSAPGRASAPPPPPPVYCVCRQPYDVNRFMIECDVCKDWFHGSCVGVEEHHAVDIDLYHCPDCAALHGSSLMKKRRNWHRHDYTEVDDGSKPVQAGTRAFVKELRSRVFPSADEIIVKMHGSQLTQRYLEKHGFDVPIMVPKLDDLGLRLPSPAFSVMDVERYVGGDKVIDVIDVARQADSKMTLHNYVKYFMNPDRPKVLNVISLEFSDTKMSELVEVPDIARKLSWVENYWPDDSVFPKPFVQKYCLMGVQDSYTDFHIDFGGTSVWYHVLWGEKIFYLIKPTNENLALYESWSSSVTQSEVFFGDKVDKCYKCVVKQGHTLFVPTGWIHAVLTSQDCMAFGGNFLHNLNIGMQLRCYEMEKRLKTPDLFKFPFFEAICWFVAKSLLETLKELKEDGFQPQSYLVQGVKALHTALKLWMKKELVSEHAFEIPDNVRPGHLIKELSKVIRAIEEENGKPVKSQGIPSVCPVSRPSNEASPPYHSRRKMRKLRDHNVRTPSNLDILELHTREVLKRLEMCPWEEDLLSSKLNGKFNKHLQPSSTVPEWRAKDNDLRLLLTNGRIIKDERQLFADRSLYTADSENEEDKKPTQNANMKTEQSSGREEAESQGSPKPLNRIFTSVRSELRSRPSEYSDGSDSEDSGPDCTALKINFATEDSESSGDEKKHEITSHFKEESDIVRNLLQKSQKPSRQEIPVKRECPTSTSTEEEAIQGMLSMAGLHYSSCLQRQIQSTDCSGEKNSLQDPSSCHGSNPEFRQLYRCNKPVEFGYHAKTEDQDLMTSSWNKQFDRTSRFNAQDLSRSQKHIKKESSSEINQKAQSRHCVDSNSSSIQNGKYTLNPSLVSCQISNGSLSPERPIGETSFSMPLHPTKRPASNPPPISNQATKGKRPKKGMATAKQRLGKILKLNRNGHARFFV
